Data from PMC12118722, “Self-assembled peptide-dye nanostructures for in vivo tumor imaging and photodynamic toxicity” (npj Imaging, 2024).
No constants are given. Whether binding was seen depends on the method and setting. Some entries that bind do so weakly or less than the wild type.

By UniProt entry, the sequences of proteins in these tests, tags left out. Where a name states a change or a piece, a line headed by the entry shows the natural chain unless it says otherwise.
UniProt P06756: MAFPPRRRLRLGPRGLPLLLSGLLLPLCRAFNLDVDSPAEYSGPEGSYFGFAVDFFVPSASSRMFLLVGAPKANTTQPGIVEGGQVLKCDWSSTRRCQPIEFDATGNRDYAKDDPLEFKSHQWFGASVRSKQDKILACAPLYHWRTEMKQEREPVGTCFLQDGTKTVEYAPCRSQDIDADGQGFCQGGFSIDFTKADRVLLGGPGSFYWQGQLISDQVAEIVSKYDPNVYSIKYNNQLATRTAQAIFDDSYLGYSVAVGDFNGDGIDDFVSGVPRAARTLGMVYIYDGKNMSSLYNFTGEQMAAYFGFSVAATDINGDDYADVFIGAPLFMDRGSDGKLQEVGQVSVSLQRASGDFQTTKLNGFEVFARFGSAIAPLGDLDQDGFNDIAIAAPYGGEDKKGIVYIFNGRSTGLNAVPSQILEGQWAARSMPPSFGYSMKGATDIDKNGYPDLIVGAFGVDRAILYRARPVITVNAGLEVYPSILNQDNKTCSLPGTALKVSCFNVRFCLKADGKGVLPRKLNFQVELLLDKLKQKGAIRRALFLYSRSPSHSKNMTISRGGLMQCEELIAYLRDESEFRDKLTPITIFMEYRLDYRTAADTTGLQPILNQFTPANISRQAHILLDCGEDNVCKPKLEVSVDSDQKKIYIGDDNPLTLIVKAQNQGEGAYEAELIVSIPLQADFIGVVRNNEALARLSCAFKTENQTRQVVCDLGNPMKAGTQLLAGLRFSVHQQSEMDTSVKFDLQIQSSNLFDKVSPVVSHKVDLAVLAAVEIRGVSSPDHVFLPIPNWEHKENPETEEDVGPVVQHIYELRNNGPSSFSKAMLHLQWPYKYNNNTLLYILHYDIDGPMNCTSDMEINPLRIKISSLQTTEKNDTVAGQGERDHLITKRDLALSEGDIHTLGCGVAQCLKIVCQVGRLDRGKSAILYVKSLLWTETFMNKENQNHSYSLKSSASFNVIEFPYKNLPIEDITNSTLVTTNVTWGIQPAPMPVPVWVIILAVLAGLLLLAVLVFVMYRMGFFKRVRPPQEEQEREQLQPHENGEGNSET
UniProt P18084: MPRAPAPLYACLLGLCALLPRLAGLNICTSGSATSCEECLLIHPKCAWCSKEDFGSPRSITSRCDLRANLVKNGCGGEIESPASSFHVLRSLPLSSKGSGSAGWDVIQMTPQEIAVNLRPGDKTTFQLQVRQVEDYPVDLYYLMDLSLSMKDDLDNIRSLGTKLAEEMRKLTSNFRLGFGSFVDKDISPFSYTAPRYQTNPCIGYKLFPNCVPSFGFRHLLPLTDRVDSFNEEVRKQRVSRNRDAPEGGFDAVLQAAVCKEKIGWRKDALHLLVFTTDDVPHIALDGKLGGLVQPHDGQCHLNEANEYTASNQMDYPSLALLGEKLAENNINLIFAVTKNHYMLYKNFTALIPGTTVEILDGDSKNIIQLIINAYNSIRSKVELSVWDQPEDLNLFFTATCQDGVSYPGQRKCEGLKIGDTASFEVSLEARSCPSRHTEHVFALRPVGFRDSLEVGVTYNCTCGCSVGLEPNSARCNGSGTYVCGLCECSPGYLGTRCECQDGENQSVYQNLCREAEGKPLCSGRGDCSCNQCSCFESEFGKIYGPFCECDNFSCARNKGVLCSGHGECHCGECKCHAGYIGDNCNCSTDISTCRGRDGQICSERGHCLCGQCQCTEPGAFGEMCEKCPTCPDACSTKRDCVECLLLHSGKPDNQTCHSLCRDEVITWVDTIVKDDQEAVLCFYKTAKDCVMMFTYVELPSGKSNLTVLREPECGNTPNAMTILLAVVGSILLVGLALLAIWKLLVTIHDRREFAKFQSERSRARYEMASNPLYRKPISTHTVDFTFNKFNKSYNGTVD

Molecular target: αVβ5 integrin (human (endogenous in SKOV-3)) (UniProt P06756+P18084)
Assay: flow cytometry on cells; competitive inhibition: SKOV-3 cells seeded overnight, treated or not with αVβ5 mAbs (20 µg/µL) for 90 min, then with iRGD-BNPs or iRGD-SNPs; methylene blue fluorescence of the cells read in the APC channel; only the binder purified

- binding: binds
Binder: CRGDKGPDCDD [iRGD-DD]
